Measured values: PubChem BioAssay AID504375 (National Center for Advancing Translational Sciences (NCATS), 2011)
The campaign covered roughly 1,600 compounds. About 25 (2%) were called active. Roughly 7% stayed inconclusive and do not appear here. Calls follow the shape of the dose curve; as a rule, active = well fitted inhibition curve with a large enough effect; inconclusive = small, poorly fitted or top-dose-only effect, or effect the other way; inactive = no such curve, though single readings can be large or run the other way. The list shows a part of the results.

Sequences of proteins named here, by UniProt entry; tags and fusion partners are left off.
UniProt Q01196, whole entry, looked up: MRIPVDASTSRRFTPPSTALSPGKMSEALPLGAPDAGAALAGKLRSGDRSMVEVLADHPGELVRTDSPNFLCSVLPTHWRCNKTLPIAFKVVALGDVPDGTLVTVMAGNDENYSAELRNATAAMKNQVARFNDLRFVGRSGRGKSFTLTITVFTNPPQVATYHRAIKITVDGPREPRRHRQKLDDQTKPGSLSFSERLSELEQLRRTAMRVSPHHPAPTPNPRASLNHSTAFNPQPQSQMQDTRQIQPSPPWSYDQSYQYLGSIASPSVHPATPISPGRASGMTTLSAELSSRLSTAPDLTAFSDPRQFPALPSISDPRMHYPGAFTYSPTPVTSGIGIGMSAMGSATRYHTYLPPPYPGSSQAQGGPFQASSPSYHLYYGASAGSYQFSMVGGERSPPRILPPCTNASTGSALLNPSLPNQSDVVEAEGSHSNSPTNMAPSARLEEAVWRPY
UniProt Q13951, whole entry, looked up: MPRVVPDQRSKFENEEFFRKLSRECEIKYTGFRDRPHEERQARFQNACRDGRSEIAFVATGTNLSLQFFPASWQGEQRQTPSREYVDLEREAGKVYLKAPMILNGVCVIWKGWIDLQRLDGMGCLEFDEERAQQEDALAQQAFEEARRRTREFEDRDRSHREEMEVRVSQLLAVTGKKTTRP

target: Runt-related transcription factor 1 (Homo sapiens) + Core-binding factor subunit beta (Homo sapiens) (UniProt Q01196+Q13951); experiment: qHTS Assay for Compounds Blocking the Interaction Between CBF-beta and RUNX1 for the Treatment of Acute Myeloid Leukemia: Hit Validation with Orthogonal Assay; settings: CBFbeta-RUNX1 binding orthogonal assay, biochemical; series mostly up to 41 µM; activity change, negative = inhibition: at the top concentration
Description: NIH Chemical Genomics Center [NCGC]
NIH Molecular Libraries Probe Production centers Network [MLPCN]
Assay Submitter (PI): Paul Liu
Core Binding Factor (CBF) abnormalities are associated with 20-25% of all acute myeloid leukemias (AML), of which 5-10% are further sub classified as acute myelomonocytic leukemia with eosinophilia, also known as M4Eo in the FAB classification scheme. This subtype of leukemia is usually associated with chromosome 16 inversion (p13:q22). Chromosome 16 inversion results in formation of the fusion oncogene CBFB-MYH11, which encodes the fusion protein CBF-beta-SMMHC.
It has been hypothesized that the interference of CBF-beta and RUNX1 binding could have therapeutic implications for patients with CBF mediated leukemias. We developed a CBF-beta and RUNX1 binding assay in AlphaScreenTM format and optimized it for high throughput screening to search for inhibitors. The goal of this project is to screen MLPCN's compound collection (MLSMR) for identifying the inhibitors of the interaction between CBF-beta and RUNX1 proteins as research probes. If these probes work well in the animal models, the ultimate goal of this project is to development a new drug treatment for this disease.
This assay can not be used to assess how apparent inhibitors interfere with protein binding, and whether inhibitors specifically bind to either protein. Disruption of this protein-protein interaction, through any mechanism, is the intended target activity.
The present data set was run to confirm the activity of hits from the primary screen using an orthogonal assay technology for measuring protein-protein interaction disruption.
A TR-FRET (time resolved fluorescence resonance energy transfer) assay was performed using the same assay buffer, protein concentrations and incubation times as described previously in the AlphaScreen assay, except that terbium (Tb+) labeled anti-his-antibody and XL665 linked streptavidin were used to capture the binding signal. The Tb+ labeled anti-his-antibody captures His(6)-CBF and XL665 linked streptavidin binds to biotin-RUNX1. The binding of RUNX1 to CBFbrings Tb+ and XL665 to proximity resulting in a TR-FRET signal. Briefly, in a white 384-well plate, 10 µl/well of mixture of biotin-RUNX1 and His(6)-CBFwere incubated with 10 µl/well buffer (positive control) or 10 µl/well compounds (negative control) for 20 min followed by an addition of 10 µl/well of Tb+ labeled anti-his(6)-antibody and XL665 linked streptavidin. After 90 min of incubation in the dark, the assay plate was measured in the Envision plate reader using TR-FRET detection mode. For the 1536-well plate format, 3 µl/well mixture of biotin-RUNX1 and His(6)-CBF (30 nM per protein) was incubated with 23 nl/well compound (dissolved in 100% DMSO) or the equivalent DMSO concentration (positive control) for 30 min followed by the addition of 1 µl/well of 0.44 ng Tb+ labeled anti-his(6)-antibody and 5 nM streptavodin-XL665. After 90 min of incubation, the assay plate was measured in the Envision plate reader.
The TR-FRET assay for detecting interaction between HIV-I Tat and […] was similarly performed with the recombinant full-length HIV-I Tat CLADE B and HIV-I Tat Biotin conjugated proteins supplied by Diatheva (Fano, Italy). Briefly, the His-CBF and Biotin-RUNX1 complex at a working concentration of 83.3 nM per protein were pre-incubated in assay buffer for 10 minutes on ice. Then HIV-I Tat or unlabeled CBF were added to reach final concentrations (Supplementary Figure 4b) and incubated for 5 minutes. Finally anti-His antibody and streptavidin-XL665 at a final concentration of 2.2 ng and 5 nM, respectively, were added to the plate, which was incubated for 1 hr prior to reading on the PerkinElmer Envision plate reader.
Keywords: MLSMR, MLPCN, NIH Roadmap, qHTS, NCGC, Core binding factor, CBF, CBF-beta, Acute myeloid leukemia
% is scaled to controls: 0 for no effect and ±100 for the full control effect; potency is read from the fitted curve at half-maximal effect.

Row | SMILES | activity change, negative = inhibition | Potency
1 | Cc1ccc(C(=O)CSc2nnc(-c3snnc3C)n2C2CC2)cc1 | inactive: -10.2% | 
2 | Cc1cc(NS(=O)(=O)c2ccc(NC(=O)CSc3nc4ncc(Cl)cc4[nH]3)cc2)nc(C)n1 | inactive: -3.67% | 
3 | COC(=O)c1sccc1S(=O)(=O)Nc1ccc(C)cc1 | inactive: 6.18% | 
4 | Cc1ccncc1C(N)=O | inactive: -8.07% | 
5 | COc1ccc(OC)c(/C=N/NC(=O)c2cc3c(OC)cc(OC)cc3[nH]2)c1 | inactive: -11.4% | 
6 | CN1CCN(C(=O)Nc2cccc(-c3ccccc3)c2)CC1 | inactive: 6.34% | 
7 | CCN(CC)S(=O)(=O)c1cccc(NC2=NCCCCC2)c1 | inactive: -3.88% | 
8 | CCOC(=O)/C(C#N)=C/Nc1ccccc1OC(F)(F)F | inactive: -8.6% | 
9 | Cc1ccc(NC(=S)N(C)C)cc1C | inactive: 6.41% | 
10 | Cc1c(-c2ccc(Br)cc2)[n+](=O)c2c(n1[O-])CCCCC2 | inactive: 8.34% | 
11 | COc1cccc(C(=O)NNC2=C(C(=O)C(F)(F)F)CCC2)c1 | inactive: 6.85% | 
12 | CCN(CC)c1ccc(/C=N/N2CCN(Cc3ccccc3Cl)CC2)c(O)c1 | inactive: 3.34% | 
13 | O=C(O)C[C@@H]1C(=O)O[C@@H]2C(COC(=O)c3cc(O)c(O)c(O)c3)O[C@@H](OC(=O)c3cc(O)c(O)c(O)c3)[C@@H](OC(=O)c3cc(O)c(O)c4c3[C@H]1[C@H](O)C(=O)O4)[C@H]2OC(=O)c1cc(O)c(O)c(O)c1 (some centres not stated) |  | active: 89.1 nM
14 | O=C(Nc1nnc(C2CC2)s1)c1cccnc1Oc1ccc(Cl)cc1 | inactive: -9.76% | 
15 | Cn1c(=O)c([N+](=O)[O-])c(NCc2ccc3c(c2)OCO3)c2ccccc21 | inactive: 20.7% | 
16 | CCOC(=O)N1CCc2c(sc(NC(=O)CN3CCOCC3)c2C#N)C1 | inactive: -10% | 
17 | CCc1cccc(NC(=O)CCCCCC2NC(=O)NC2C)c1 (configuration not stated) |  | active: 56.2 nM
18 | CCN(CC)C(=S)SCC(=O)Nc1ncc2c(n1)CCCC2=O | inactive: 3.58% | 
19 | Cc1ccc(S(=O)(=O)N2CCCCC2)cc1NC(=O)Cn1cnnn1 | inactive: 0.33% | 
20 | O=c1[nH]nc(N/N=C/c2ccc(Cl)cc2Cl)c(=O)[nH]1 | inactive: 28.6% | 
21 | O=C(NNC(=S)Nc1ccccc1C(F)(F)F)C1CC1 | inactive: 1.1% | 
22 | CCCN(CCC)C(=O)CC(c1ccccc1)c1ccco1 (configuration not stated) | inactive: -11.8% | 
23 | COc1ccc2[nH]c(C(=O)N3CCCN(Cc4ccc(F)cc4)CC3)cc2c1 | inactive: 13.2% | 
24 | Cn1cnnc1SCc1ccccc1[N+](=O)[O-] | inactive: 5.82% | 

Look-ups from the list.
Entry for COC(=O)c1sccc1S(=O)(=O)Nc1ccc(C)cc1 under activity change, negative = inhibition: inactive: 6.18%
Entry for Cn1cnnc1SCc1ccccc1[N+](=O)[O-] under activity change, negative = inhibition: inactive: 5.82%
Entry for CCN(CC)S(=O)(=O)c1cccc(NC2=NCCCCC2)c1 under activity change, negative = inhibition: inactive: -3.88%

Continuation:

Row | SMILES | activity change, negative = inhibition | Potency
25 | CCOC(=O)c1cn[nH]c1C(F)(F)F | inactive: -3.66% | 
26 | Cc1cc(C)c(C#N)c(SCCN2CCOCC2)n1 | inactive: 11.6% | 
27 | O=C(CSc1n[nH]c(=O)[nH]c1=O)N1CCCCCC1 | inactive: 14.5% | 
28 | O=C(CSc1nc(O)c(Cc2ccccc2)c(=O)[nH]1)c1ccccc1 | inactive: 6.85% | 
29 | Nc1nccc(/C=C/c2ccc(Cl)cc2)n1 | inactive: 4.36% | 
30 | Cn1cnc2c(N/N=C/c3cccs3)ncnc21 | inactive: 23.8% | 
31 | CCN1CCN(c2nc3ccccn3c(=O)c2/C=C(\C#N)S(=O)(=O)c2ccccc2)CC1 | inactive: 23.5% | 
32 | CCN(CC)c1ccc(/C=N/NC(=O)c2ccco2)c(O)c1 | inactive: 35.9% | 
33 | Cc1ccc(Sc2ncccc2NC(=O)c2ccccc2Cl)cc1 | inactive: 3.33% | 
34 | COc1ccccc1CC(=O)Nc1cccc(C(=O)Nc2nccs2)c1 | inactive: -0.673% | 
35 | S=c1[nH]nc(-c2ccccc2Cl)n1/N=C/C=C/c1ccco1 | inactive: -11.9% | 
36 | C=C1CC[C@H](O)C/C1=C/C=C1\CCC[C@]2(C)[C@H]1CC[C@H]2[C@@H](C)CCCC(C)C | inactive: 3.52% [at 82.4 µM] | 
37 | Brc1csc2ncccc12 | inactive: 2.37% | 
38 | CCOc1cc(C(=O)NCCc2ccc(S(N)(=O)=O)cc2)cc(OCC)c1OCC | inactive: 15.1% | 
39 | CC(C)Nc1cc(C(C)(C)C)nc2c(-c3ccccc3)cnn12 | inactive: 4.12% | 
40 | C/C(=N\Nc1ccc(Cl)c(C(=O)O)c1)c1ccccn1 | inactive: -8.44% | 
41 | CN(C(=O)Nc1ccc(Cl)cc1)n1cnc2ccccc2c1=O | inactive: -3.24% | 
42 | N#Cc1c(-c2ccccc2Cl)c2c([nH]c1=O)-c1ccccc1OC2 | inactive: 25.6% | 
43 | Cc1ccc2[nH]cc(CCNC(=O)/C=C/c3ccco3)c2c1 | inactive: 21.1% | 
44 | Cc1ccc(NC(=O)N2CCCn3c(SCC(=O)c4ccccc4)nnc32)cc1 | inactive: -3.05% | 
45 | O=C1/C(=C/c2ccsc2)N2CCC1CC2 | inactive: -6.79% | 
46 | CCOc1ccc(N2CSC(=S)N(c3ccc(OCC)cc3)C2)cc1 | inactive: -4.28% | 
47 | COC(=O)c1cnc(NNS(=O)(=O)c2ccc(Cl)cc2)nc1C(F)(F)F | inactive: 5.71% | 
48 | CCOc1nsc(OCC)n1 | inactive: 8.39% | 

Row | SMILES | activity change, negative = inhibition | Potency
49 | CCOC(=O)c1cc(-c2ccccc2)nc2ccc(C)cc12 | inactive: 4.67% | 
50 | CNC(=O)C(=O)N/N=C/c1cccnc1 | inactive: -5.48% | 
51 | CN(C)C(=S)Nc1ccc(Cl)cc1 | inactive: -10.5% | 
52 | O=C(NC1CCN(C(=O)c2cccs2)CC1)c1ccccc1 | inactive: 3.49% | 
53 | O=[N+]([O-])c1ccc2[nH]c(O)c(N=NC3CS(=O)(=O)CC3O)c2c1 (configuration not stated) | inactive: 46.9% | 
54 | CCOc1cc(/C=N/n2c(C)nnc2C)ccc1O | inactive: -5.3% | 
55 | COc1ccc(CNc2nc3nc(C)c(Cl)c(C)n3n2)cc1 | inactive: -2.9% | 
56 | O=C(c1ccccc1)C1C(c2ccccc2)C1[N+](=O)[O-] (configuration not stated) | inactive: -5.25% | 
57 | Cc1cc([N+](=O)[O-])nn1CC(=O)N/N=C/c1ccccc1F | inactive: 11.7% | 
58 | CCOC(=O)c1sc(NC(=O)CSC(=S)N2CCN(C)CC2)nc1C | inactive: -20.5% | 
59 | CC(=O)c1sc(C(C)(C)C)cc1NC(=O)/C=C/C(=O)O | inactive: 5.88% | 
60 | Cn1c(-c2ccc3ccccc3n2)[n+](C)c2ccccc21 | inactive: 16.1% | 
61 | Cc1[nH][nH]c(=O)c1C(c1ccc(N(C)C)c(Br)c1)c1c(C)[nH][nH]c1=O | inactive: 16.4% | 
62 | CCOC(=O)c1sc(=S)n(-c2ccc(OC)cc2)c1N | inactive: 57.8% | 
63 | Cc1nn(C)c(C)c1NC(=O)c1ccccc1NC(=O)Nc1ccccc1 | inactive: 3.06% | 
64 | COc1ccc2c(c1)[nH]c1c(N3CCSCC3)ncnc12 | inactive: 3.21% | 
65 | Clc1ccc(C2=Nn3c(Cn4nnc5ccccc54)nnc3SC2)cc1 | inactive: 2.69% | 
66 | NC(=O)c1ccccc1OCC(=O)Nc1ccc(Cl)c(Cl)c1 | inactive: 0.0612% | 
67 | COc1cc(/C=C2\SC(=S)N(NC(=O)c3ccncc3)C2=O)ccc1O | inactive: 72.8% | 
68 | CCCOc1ccc(CSC(=N)N)cc1C(=O)OC | inactive: -1.37% | 
69 | CC(C)CCCC(C)CCOC(=O)CN1CCCC1 (configuration not stated) | inactive: -7.65% | 
70 | O=C(O)c1cccc(COc2ccc3c(c2)CCC3)c1 | inactive: -20.8% | 
71 | COc1ccccc1N1CC(C)(C)C(=O)N(C(=O)c2c(F)cccc2Cl)C1=S | inactive: 5.88% | 
72 | COc1cc(C(=O)NC(=S)Nc2ccc3c(c2)OCO3)cc(OC)c1OC | inactive: 2.92% | 
